From patent publication US20230192796A1
These are yes or no findings as the source states them, for the method shown. Some binding calls cover weakened binding; strength is not graded here.

Protein sequences, listed by entry. Tags and fused reporters are not part of them. Lines headed by an entry give the natural chain unless they say otherwise; changes in a name come on top. Chains listed by the source or under a name are the forms on record and can include a tag or linker.
Human IL-10Rβ extracellular domain (20-220), biotinylated (Q08334, form named): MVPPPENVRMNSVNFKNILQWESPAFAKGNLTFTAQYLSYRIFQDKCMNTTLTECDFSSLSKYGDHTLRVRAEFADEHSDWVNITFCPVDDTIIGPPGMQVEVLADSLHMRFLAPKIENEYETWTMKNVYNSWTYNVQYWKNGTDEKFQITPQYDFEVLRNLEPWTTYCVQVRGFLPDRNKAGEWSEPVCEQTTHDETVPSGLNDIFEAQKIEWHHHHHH
UniProt P22301: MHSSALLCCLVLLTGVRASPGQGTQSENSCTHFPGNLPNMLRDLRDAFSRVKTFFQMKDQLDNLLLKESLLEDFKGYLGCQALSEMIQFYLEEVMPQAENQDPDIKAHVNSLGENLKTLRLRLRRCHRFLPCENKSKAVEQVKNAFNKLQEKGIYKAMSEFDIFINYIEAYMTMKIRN

Target: Human IL-10Rβ extracellular domain (20-220), biotinylated (human) (UniProt Q08334)
Test: yeast display; titration of SA-647-IL-10Rβ on yeast pre-bound with 500 nM unlabeled IL-10Rα; compared with WT monomeric IL-10

binding, binds:
Affinity matured IL-10 clone 5.2, displayed on yeast (from UniProt P22301 19-178) (ligand)
Affinity matured IL-10 clone 5.1, displayed on yeast (from UniProt P22301 19-178) (ligand)
Affinity matured IL-10 clone 5.3, displayed on yeast (from UniProt P22301 19-178) (ligand)
